# Laboratory results published in PubChem BioAssay AID1347076 (National Center for Advancing Translational Sciences (NCATS), 2019).
# Out of some 400,000 compounds screened, about 13,000 (3.2%) were called active. Inconclusive means that the source gave no clear call. Such entries were picked first, then a sample of the others. Calls come from the whole dose curve; as a rule, active = well fitted cell-killing curve with a large enough effect; inconclusive = small, poorly fitted or top-dose-only effect, or effect the other way; inactive = flat fitted curve, though single readings scatter. A potency beside an inconclusive call is a rough fit, not a confirmed value.
# Experiment: qHTS assay for MDR1-selective chemotherapeutics: Primary screen using the drug-selected MDR subline cells KB-V1; note: nearly all actives have a fitted effect of over 60% in size
# Settings: KB-V1 MDR cells viability, CellTiter-Glo, 72 h; series mostly up to 46.1 µM
# Procedure, shortened: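 Readout: CellTiter-Glo luminescence, 10 min after addition. Cells: KB-V1 MDR subline, 72 h at 37 degrees C with compound. Analysis: corrected, normalized data fitted to concentration-effect curves.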
# Potency is the fitted concentration of half-maximal effect.
row,SMILES,Potency
1,c1ccc(NN(Cc2cnccn2)c2ccccc2)cc1,inactive
2,C=CCOc1c(Br)cc(/C=N/n2c(CC)n[nH]c2=S)cc1Br,"inconclusive: 29.1 µM [cytotoxic, partial curve, poor fit]"
3,Cc1nnc(SCC(=O)c2c(N)n(Cc3ccccc3)c(=O)n(C)c2=O)n1C,"inconclusive: 16.4 µM [rising, single point]"
4,C/C(=N\NC(=S)Nc1c(C)cccc1C)c1ccc(O)cc1,inactive
5,CCOc1ccc2ncc3c(-c4ccc(C)cc4)nn(-c4cccc(F)c4)c3c2c1,inactive
6,COc1cc(C2OC(c3cc(OC)c(OC)c(OC)c3)C(C)C2C)cc(OC)c1OC (stereo unspecified),"inconclusive: 18.4 µM [cytotoxic, partial curve, poor fit]"
7,CSc1ccc(CN(C)CC(=O)NC(=O)NCCC2=CCCCC2)cc1,active: 20.6 µM
8,COc1ccc(CCNC(=O)CSc2nc3[nH]c(=O)cc(O)c3s2)cc1,"inconclusive: 16.4 µM [cytotoxic, single point]"
9,CCSc1ccc(-c2cc(NC=O)c3ncc(-c4cc(OC)c(OC)c(OC)c4)n3c2)cc1,"inconclusive: 29.1 µM [cytotoxic, single point]"
10,Cc1ccc(C(=O)N/N=C\C2CC=CCC2)cc1[N+](=O)[O-] (stereo unspecified),"inconclusive: 29.1 µM [rising, single point]"
11,C[C@@H](c1ccccc1)N1C[C@@H](COCc2ccccc2)Oc2cc(N3CC[C@@H](N(C)C)C3)ccc2S1(=O)=O,"inconclusive: 29.1 µM [cytotoxic, single point]"
12,O=C(NCc1ccc(Cl)cc1)c1noc2c1CCCCC2,active: 20.6 µM
13,Cn1cnnc1SC1CCCCC1NS(=O)(=O)c1ccccc1 (stereo unspecified),inactive
14,O=S(=O)(c1cccc(Cl)c1)c1nnn2c1nc(NCc1ccc3c(c1)OCO3)c1sccc12,"inconclusive: 29.1 µM [cytotoxic, single point]"
15,O=C(CSc1nnc(-c2cccnc2)n1Cc1ccco1)c1ccc(Br)cc1,inactive
16,COc1ccc(NC(=O)C2CCN(C(=O)[C@@H]3Cc4ccccc4CN3)CC2)cc1,inactive
17,O=C(N/N=C/c1ccc([N+](=O)[O-])o1)c1sc2ccccc2c1Cl,"inconclusive: 23.1 µM [cytotoxic, single point]"
18,CCN(CC(=O)Nc1c(F)cccc1F)C(=O)C1CC(=O)N(CCc2ccc(OC)c(OC)c2)C1 (stereo unspecified),"inconclusive: 25.9 µM [rising, single point]"
19,COc1ccccc1NC(=O)C1=C(C)Nc2nc(-c3cccs3)nn2C1c1cccc(O)c1 (stereo unspecified),"inconclusive: 23.1 µM [cytotoxic, partial curve, poor fit]"
20,Cc1nn(Cc2n[nH]c(=S)n2Cc2ccccc2)c(C)c1Cl,inactive
21,CCOC(=O)CN=C/C(C(=O)Nc1nccs1)=C(/C)O,inactive
22,COc1ccc(C(=O)NN(C)c2nc(C(F)(F)F)nc3ccccc23)cc1,active: 0.731 µM
23,Cc1ccc2c(c1)N(C(=O)CSc1nncn1C)C(C)(C)c1ssc(=S)c1-2,"inconclusive: 20.6 µM [cytotoxic, single point]"

row,SMILES,Potency
1,COc1cccc(C(=O)CC(=O)C(=O)Nc2cccc([N+](=O)[O-])c2C)c1,inactive
2,CC(=O)Nc1ccc(-c2cc(NC(C)=O)n(-c3ccccc3)n2)cc1,"inconclusive: 8.2 µM [rising, partial curve, poor fit]"
3,COc1ccccc1/C=C/C(=O)c1c2c(c(C)[nH]c1=O)CCCC2,"inconclusive: 29.1 µM [cytotoxic, partial curve, poor fit]"
4,Fc1cccc(Cc2noc(CN3CCCCC3c3ccccn3)n2)c1 (stereo unspecified),"inconclusive: 9.2 µM [cytotoxic, partial curve, poor fit]"
5,Cc1ccc(NC(=O)c2ncn(CCCN3CCN(c4ncccn4)CC3)n2)cc1C,inactive
6,Cc1ccc2nc(CC(O)(c3ccccc3)c3ccccc3)ccc2c1,inactive
7,O=[N+]([O-])c1ccc(CSc2ncnc3c2ncn3[C@@H]2O[C@H](CO)[C@@H](O)[C@H]2O)cc1,"inconclusive: 18.4 µM [cytotoxic, single point]"
8,CCOC(=O)c1ccccc1NC(=O)c1sc2nc3n(c(=O)c2c1C)CCCCC3,inactive
9,CN(C)S(=O)(=O)N(CC(=O)NCCSCc1c(F)cccc1Cl)c1ccccc1,"inconclusive: 9.2 µM [cytotoxic, partial curve]"
10,CN(C)c1ncnc2c1ncn2C1OC(CO)C(O)C1O (stereo unspecified),"inconclusive: 10.3 µM [cytotoxic, partial curve, poor fit]"
11,COc1cccc(CNc2nc3cc(-c4ccc(C)cc4)sc3c(=O)n2C)c1OC,active: 11.6 µM
12,NS(=O)(=O)c1ccc(NC(=O)C2(c3ccccc3)CCCC2)cc1,"inconclusive: 23.1 µM [rising, partial curve, poor fit]"
13,O=S(=O)(Cc1ccccc1)NCc1cccnc1,inactive
14,C=CCc1cccc(OC)c1OCCOCCNCCO,inactive
15,CCCCNC(=O)C1(C)CCC(=O)N1CCOC (stereo unspecified),inactive
16,CCOc1ccc(CN2CCN(Cc3[nH]c4ccc(OC)cc4c3C)CC2CCO)cc1 (stereo unspecified),"inconclusive: 9.2 µM [cytotoxic, partial curve]"
17,COc1ccc(C(=O)Nc2ccc(C(=O)c3ccccc3)cc2)cc1,"inconclusive: 4.61 µM [cytotoxic, full curve]"
18,Cc1ccc(S(=O)(=O)N2CCC(N3CCN(Cc4ccccc4)C(=O)C3=O)CC2)cc1C,inactive
19,CCN1C(=O)C(CC(=O)Nc2ccc(F)cc2)N(Cc2ccc3c(c2)OCO3)C1=S (stereo unspecified),"inconclusive: 13 µM [cytotoxic, partial curve]"
20,C=CCn1c(O)c(N=NC(=O)OCC)c2ccccc21,"inconclusive: 29.1 µM [cytotoxic, partial curve, poor fit]"
21,COc1ccccc1CNC(=O)c1ccccc1OC,"inconclusive: 20.6 µM [cytotoxic, partial curve]"
22,CCc1nc(N2CCN(C(=O)CCCl)CC2)c2c3c(sc2n1)CCCC3,inactive
23,Cc1cccc(-n2c(C)cc(C(=O)C(=O)Nc3ccccc3F)c2C)c1C,inactive

# Part of the list above in another layout.
row | SMILES | Potency
9 | CN(C)S(=O)(=O)N(CC(=O)NCCSCc1c(F)cccc1Cl)c1ccccc1 | inconclusive: 9.2 µM [cytotoxic, partial curve]
21 | COc1ccccc1CNC(=O)c1ccccc1OC | inconclusive: 20.6 µM [cytotoxic, partial curve]
22 | CCc1nc(N2CCN(C(=O)CCCl)CC2)c2c3c(sc2n1)CCCC3 | inactive
